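Viability assay of Plasmodium falciparum sporozoites; the read-out is not stated. The concentration is filed as 10 mM, unlikely as a test dose, so the dose is not known. Direction is inferred from retests: higher values go with lower viability. Strong results were mostly tested again. Of about 34,000 compounds tested this way, about 280 (0.84%) reached 50% or more in at least one test.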

The filed quantity is “Percent Effect” (%).
How 0% and 100% were set is not recorded. Most values in the screen are low, and negative values occur.
This is an unselected part of the compounds tested.

compound: CCc1nnc(Nc2cc(C)nc(C3CCN(c4ncccn4)C3)n2)s1 (centres unmarked)
effect: 9.678%

compound: Cl.O=C(c1cc2c(s1)CCCC2)N1CCc2nc(C3CCCN3)ncc2C1 (centres unmarked)
effect: 3.152%

compound: CNc1nc(C2CCCCN2C(=O)COC)nc2c1CN(C)CC2 (centres unmarked)
effect: 4.351%

compound: Cc1noc(C)c1C(=O)N1CCCC1c1c(C)nn(C)c1Cl (centres unmarked)
effect: -2.549%

compound: Cc1ccc(F)cc1S(=O)(=O)Nc1ccc2c(C(=O)O)c[nH]c2c1
effect: 15.85%

compound: CC(C)Oc1ncccc1CNC(=O)NC(C)c1cccs1 (centres unmarked)
effect: -1.074%

compound: Cc1cccc(N2CCOCC3(C2)CN(c2cnn(C)c2)C(=O)CO3)n1.O=C(O)C(F)(F)F (centres unmarked)
effect: -7.277%

compound: O=C(c1ccc(CN2CCCC2)cc1)N1CCCC(n2cccn2)C1 (centres unmarked)
effect: -7.692%

compound: COC(=O)[C@H](C)NC(=O)Cc1c(C)nc2cc(=O)[nH]n2c1C
effect: -10.99%

compound: N#Cc1ccccc1N1CCCN(C(=O)CCn2cccn2)CC1
effect: -4.523%

compound: CC(=O)NC1CCCN(C(=O)NCc2ccc(-c3ccn[nH]3)cc2)C1 (centres unmarked)
effect: 5.949%

compound: Cc1ncsc1C(=O)N1CCC(c2ccc3c(NC(C)C)n[nH]c3n2)C1 (centres unmarked)
effect: -3.829%

compound: CN1CC[C@H](N(Cc2ccccc2)C2COC2)C[C@H](O)C1
effect: -0.09569%

compound: O=C(O)C(F)(F)F.O=C(O)C(F)(F)F.[H][C@@]12OCCN(c3cc(OC)ncn3)[C@@]1([H])CC[C@@H]2Oc1cccnc1
effect: -5.569%

compound: O=C(c1cscn1)N1CCc2ncnc(-c3ccncc3)c2CC1
effect: 13.52%

compound: O=C(O)C(F)(F)F.[H][C@@]12CCCO[C@]1([H])[C@@H](OCC)CN2CC1CCOCC1
effect: 5.738%

compound: Cc1ccsc1C(=O)N1CC(C(=O)N2CCOCC2)C2(CCOCC2)C1 (centres unmarked)
effect: 6.369%

compound: Cc1ccc(C(=O)NS(=O)(=O)c2cc(Br)ccc2C)c(=O)[nH]1
effect: 4.641%

compound: Cc1ccc(S(=O)(=O)n2ccn(C(=O)CC(C)C)c2=O)cc1
effect: -3.179%

compound: CCc1nnc(CNC2CCc3nc(C(C)C)nn3C2)o1 (centres unmarked)
effect: 0.4507%

compound: CCN(Cc1nc2c(cnn2C)c(=O)[nH]1)c1ccc(OC)c(OC)c1
effect: -5.728%

compound: Cn1ccnc1CN1CCC(Cc2ccccn2)CC1
effect: 16.74%

compound: Cn1cc(C2CC(=O)NC23CCN(C(=O)C2CC=CC2)CC3)cn1 (centres unmarked)
effect: 1.686%

compound: CN1CCOC(CNC(=O)Cc2coc(-c3ccccc3)n2)C1 (centres unmarked)
effect: -1.716%

compound: Cc1ccc2c(c1)C1(CCN(C(=O)C3CC3)CC1)CC2N1CCOCC1.O=C(O)C(F)(F)F (centres unmarked)
effect: -12.97%

compound: O=C(NCc1ccccc1F)N1CCC(C2OCCO2)CC1
effect: 0.1127%

compound: Cc1ccccc1CCNC(=O)CN1CCCC(Cn2cncn2)C1 (centres unmarked)
effect: 7.953%

compound: COc1cc(CNCc2ccnc(N3CCOCC3)c2)cc(Cl)c1OC
effect: 6.4%

compound: CN(C)C(=O)c1c[nH]nc1C1CCN(S(=O)(=O)c2ccccc2)CC1
effect: 11%

compound: Cc1cc(C)n(C2CCCN(C(=O)c3cc(C(N)=O)cs3)C2)n1 (centres unmarked)
effect: 11.68%

compound: CC(C)n1nc2c(cc1=O)CN(c1ncnc3ccccc13)CC2
effect: -0.6519%

compound: [H][C@@]12C[C@@H](Oc3cccnc3)CN1CCN(C(=O)c1cnccn1)C2
effect: -16.71%

compound: Cc1nc(CN(C)C2CCN(CC(=O)NC3CCOCC3)C2)no1 (centres unmarked)
effect: 10.78%

compound: O=C(c1ccc(=O)[nH]n1)N1CCc2ccccc21
effect: -10.48%

compound: CN(C(=O)CC1=CCCCC1)C1CCCN(C2Cc3ccccc3C2)C1 (centres unmarked)
effect: -11.49%

The last 3 entries again:

- Cc1nc(CN(C)C2CCN(CC(=O)NC3CCOCC3)C2)no1 (centres unmarked) | 10.78%
- O=C(c1ccc(=O)[nH]n1)N1CCc2ccccc21 | -10.48%
- CN(C(=O)CC1=CCCCC1)C1CCCN(C2Cc3ccccc3C2)C1 (centres unmarked) | -11.49%

The values are deposited in ChEMBL (CHEMBL3988442, “University of Dundee, Small-Polar-MMV Screening Library” (2021)).